Data on 20 molecules can be found in publication doi:10.1101/2021.08.11.456030.

By UniProt entry, the sequences of proteins in these tests, tags left out.
UniProt O70133: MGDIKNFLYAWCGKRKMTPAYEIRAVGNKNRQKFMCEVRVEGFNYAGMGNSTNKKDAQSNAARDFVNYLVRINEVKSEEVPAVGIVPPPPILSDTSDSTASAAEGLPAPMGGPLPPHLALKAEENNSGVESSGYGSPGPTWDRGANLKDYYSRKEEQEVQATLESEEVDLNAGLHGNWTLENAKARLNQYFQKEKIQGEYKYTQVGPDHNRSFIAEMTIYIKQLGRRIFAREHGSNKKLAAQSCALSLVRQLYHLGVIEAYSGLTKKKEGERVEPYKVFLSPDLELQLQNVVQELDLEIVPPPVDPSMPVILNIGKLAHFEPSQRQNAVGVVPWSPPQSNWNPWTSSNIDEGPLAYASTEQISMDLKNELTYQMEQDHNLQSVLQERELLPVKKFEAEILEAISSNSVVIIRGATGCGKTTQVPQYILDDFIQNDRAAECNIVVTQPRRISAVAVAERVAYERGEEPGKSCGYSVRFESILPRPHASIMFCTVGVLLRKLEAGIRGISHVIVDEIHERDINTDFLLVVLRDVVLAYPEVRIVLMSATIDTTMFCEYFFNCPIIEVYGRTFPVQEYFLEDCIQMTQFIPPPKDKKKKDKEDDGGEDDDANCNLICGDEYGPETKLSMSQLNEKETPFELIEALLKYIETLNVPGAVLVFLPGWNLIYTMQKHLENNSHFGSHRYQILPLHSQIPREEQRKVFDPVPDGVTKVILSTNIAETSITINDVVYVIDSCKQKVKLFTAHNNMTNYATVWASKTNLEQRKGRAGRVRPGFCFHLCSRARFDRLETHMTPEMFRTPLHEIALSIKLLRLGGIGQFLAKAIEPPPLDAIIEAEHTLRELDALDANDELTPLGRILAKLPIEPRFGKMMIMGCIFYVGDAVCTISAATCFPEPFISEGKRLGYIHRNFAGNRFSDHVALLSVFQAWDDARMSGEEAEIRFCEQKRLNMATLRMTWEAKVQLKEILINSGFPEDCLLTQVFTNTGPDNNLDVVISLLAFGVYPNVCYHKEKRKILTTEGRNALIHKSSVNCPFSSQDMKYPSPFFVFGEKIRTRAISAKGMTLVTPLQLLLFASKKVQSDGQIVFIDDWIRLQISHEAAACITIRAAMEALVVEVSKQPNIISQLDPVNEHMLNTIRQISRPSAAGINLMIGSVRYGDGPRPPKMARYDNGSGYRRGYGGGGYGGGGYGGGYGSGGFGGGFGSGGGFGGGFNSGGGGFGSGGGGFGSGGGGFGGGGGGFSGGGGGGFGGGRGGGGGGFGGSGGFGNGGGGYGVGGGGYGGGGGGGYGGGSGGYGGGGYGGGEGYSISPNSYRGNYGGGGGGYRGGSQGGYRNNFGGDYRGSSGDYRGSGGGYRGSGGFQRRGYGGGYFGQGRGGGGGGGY
UniProt O35286: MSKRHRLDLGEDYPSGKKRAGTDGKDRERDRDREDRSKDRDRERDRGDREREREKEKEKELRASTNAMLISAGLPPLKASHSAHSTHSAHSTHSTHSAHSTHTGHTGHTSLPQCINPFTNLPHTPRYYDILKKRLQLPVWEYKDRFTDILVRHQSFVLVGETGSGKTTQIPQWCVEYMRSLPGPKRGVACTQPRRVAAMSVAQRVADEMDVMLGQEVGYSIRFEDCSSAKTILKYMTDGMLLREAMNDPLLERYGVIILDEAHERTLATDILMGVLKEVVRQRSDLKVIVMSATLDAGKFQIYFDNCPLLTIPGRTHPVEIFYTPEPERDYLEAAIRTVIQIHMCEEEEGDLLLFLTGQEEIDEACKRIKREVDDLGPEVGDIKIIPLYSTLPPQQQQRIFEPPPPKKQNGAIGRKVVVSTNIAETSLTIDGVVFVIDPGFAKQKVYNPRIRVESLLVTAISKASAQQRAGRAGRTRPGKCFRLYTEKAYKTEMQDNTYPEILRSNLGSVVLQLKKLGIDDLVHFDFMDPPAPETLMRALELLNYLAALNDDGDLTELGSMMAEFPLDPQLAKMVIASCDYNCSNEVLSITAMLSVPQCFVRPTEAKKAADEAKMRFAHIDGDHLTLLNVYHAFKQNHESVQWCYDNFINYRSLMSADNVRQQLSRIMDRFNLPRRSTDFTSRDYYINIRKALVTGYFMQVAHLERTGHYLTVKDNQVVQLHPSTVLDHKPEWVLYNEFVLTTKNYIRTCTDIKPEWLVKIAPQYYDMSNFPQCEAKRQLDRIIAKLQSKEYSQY
UniProt Q91VC3: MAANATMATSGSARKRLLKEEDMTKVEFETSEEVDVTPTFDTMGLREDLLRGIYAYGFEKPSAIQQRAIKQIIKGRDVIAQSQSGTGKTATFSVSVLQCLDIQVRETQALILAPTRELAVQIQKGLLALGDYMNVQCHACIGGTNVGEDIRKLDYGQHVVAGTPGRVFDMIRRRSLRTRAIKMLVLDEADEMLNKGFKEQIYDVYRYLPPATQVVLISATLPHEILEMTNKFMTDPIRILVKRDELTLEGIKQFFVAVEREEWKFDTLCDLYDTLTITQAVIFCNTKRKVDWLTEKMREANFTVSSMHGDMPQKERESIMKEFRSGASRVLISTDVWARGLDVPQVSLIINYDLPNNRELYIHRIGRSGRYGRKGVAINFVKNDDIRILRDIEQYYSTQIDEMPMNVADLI
UniProt O88477: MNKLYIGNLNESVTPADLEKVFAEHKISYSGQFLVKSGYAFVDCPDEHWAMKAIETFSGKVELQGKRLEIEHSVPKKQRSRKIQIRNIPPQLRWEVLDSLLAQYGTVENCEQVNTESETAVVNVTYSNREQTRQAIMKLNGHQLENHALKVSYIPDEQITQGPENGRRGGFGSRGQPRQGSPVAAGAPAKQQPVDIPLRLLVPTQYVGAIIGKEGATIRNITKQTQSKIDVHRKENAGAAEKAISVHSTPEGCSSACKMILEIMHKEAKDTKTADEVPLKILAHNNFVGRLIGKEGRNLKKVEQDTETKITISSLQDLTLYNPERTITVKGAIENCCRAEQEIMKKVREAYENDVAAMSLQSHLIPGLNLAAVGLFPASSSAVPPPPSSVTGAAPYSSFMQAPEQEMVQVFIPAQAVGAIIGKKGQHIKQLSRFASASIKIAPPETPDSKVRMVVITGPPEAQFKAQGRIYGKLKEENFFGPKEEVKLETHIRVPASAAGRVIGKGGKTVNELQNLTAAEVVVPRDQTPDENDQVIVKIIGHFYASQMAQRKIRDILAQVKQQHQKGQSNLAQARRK
UniProt Q9CPN8: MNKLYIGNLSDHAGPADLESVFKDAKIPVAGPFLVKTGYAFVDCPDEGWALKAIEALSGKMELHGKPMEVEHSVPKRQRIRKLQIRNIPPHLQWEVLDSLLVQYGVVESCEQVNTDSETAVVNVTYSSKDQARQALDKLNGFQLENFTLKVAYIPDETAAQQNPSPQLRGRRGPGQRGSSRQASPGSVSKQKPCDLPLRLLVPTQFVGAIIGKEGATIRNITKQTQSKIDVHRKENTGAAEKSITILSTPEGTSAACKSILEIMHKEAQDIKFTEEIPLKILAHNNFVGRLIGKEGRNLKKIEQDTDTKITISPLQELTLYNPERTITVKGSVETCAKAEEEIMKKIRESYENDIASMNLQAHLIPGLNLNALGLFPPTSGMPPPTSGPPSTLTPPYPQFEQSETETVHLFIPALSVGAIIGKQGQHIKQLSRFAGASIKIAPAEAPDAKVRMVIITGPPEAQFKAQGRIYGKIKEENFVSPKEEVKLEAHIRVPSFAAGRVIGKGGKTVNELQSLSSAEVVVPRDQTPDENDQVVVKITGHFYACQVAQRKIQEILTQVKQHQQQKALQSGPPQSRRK
UniProt P29341: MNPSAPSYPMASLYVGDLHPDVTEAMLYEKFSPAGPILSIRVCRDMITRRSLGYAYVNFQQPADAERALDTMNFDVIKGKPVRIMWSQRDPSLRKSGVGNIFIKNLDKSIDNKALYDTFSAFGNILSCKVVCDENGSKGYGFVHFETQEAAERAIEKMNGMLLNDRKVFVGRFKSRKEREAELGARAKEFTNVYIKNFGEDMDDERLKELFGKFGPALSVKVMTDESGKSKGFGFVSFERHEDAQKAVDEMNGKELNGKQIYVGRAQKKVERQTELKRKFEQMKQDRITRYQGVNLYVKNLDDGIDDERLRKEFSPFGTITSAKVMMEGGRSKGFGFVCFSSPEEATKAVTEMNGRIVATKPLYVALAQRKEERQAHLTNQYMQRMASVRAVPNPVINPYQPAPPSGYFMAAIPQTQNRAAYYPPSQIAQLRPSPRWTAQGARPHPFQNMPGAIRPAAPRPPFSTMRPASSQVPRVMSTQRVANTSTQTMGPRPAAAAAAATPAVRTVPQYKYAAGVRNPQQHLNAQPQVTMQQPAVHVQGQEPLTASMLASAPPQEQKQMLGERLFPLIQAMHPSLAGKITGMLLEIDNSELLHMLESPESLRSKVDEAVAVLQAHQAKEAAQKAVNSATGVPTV
UniProt B2RX14: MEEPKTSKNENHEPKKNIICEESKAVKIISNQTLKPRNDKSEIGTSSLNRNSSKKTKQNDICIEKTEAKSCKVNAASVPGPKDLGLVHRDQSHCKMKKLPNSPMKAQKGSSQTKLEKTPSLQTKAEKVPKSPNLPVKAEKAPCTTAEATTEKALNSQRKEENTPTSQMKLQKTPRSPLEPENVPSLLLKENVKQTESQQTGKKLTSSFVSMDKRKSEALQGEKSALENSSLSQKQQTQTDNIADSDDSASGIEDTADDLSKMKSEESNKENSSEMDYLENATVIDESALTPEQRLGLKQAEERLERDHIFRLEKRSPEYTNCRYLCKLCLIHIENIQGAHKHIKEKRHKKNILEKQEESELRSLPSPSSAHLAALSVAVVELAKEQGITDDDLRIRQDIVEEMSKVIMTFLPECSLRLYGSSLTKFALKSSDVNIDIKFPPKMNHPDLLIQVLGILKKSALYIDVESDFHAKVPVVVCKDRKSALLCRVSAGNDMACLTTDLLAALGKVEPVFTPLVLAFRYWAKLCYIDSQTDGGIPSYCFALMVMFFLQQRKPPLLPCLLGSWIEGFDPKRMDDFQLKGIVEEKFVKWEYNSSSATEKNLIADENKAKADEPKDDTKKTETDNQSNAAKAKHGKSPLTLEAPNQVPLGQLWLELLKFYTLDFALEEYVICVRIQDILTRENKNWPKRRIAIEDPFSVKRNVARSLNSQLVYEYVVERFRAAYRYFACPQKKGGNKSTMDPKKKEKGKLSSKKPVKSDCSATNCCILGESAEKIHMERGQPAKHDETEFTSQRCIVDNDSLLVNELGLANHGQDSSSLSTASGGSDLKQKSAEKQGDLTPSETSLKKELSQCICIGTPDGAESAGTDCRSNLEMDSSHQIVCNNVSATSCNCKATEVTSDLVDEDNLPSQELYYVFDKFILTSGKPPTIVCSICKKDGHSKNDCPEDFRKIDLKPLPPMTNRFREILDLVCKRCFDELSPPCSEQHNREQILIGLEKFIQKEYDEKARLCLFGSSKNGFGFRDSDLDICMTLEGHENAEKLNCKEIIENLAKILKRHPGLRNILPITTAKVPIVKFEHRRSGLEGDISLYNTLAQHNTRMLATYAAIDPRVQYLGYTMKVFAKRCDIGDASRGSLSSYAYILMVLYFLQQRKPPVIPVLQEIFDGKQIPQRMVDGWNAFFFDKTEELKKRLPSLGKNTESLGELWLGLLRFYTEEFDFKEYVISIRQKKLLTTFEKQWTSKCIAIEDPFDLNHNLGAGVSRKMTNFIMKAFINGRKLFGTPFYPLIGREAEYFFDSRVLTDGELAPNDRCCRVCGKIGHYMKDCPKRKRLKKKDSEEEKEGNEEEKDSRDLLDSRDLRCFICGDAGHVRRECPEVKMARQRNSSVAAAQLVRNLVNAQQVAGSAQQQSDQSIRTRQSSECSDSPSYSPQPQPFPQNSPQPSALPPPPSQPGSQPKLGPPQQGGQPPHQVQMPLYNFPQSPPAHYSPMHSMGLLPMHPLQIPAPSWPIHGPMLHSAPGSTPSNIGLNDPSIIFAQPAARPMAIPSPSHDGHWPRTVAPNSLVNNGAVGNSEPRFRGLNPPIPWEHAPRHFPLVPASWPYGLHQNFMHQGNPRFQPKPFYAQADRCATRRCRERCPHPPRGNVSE
UniProt P26369: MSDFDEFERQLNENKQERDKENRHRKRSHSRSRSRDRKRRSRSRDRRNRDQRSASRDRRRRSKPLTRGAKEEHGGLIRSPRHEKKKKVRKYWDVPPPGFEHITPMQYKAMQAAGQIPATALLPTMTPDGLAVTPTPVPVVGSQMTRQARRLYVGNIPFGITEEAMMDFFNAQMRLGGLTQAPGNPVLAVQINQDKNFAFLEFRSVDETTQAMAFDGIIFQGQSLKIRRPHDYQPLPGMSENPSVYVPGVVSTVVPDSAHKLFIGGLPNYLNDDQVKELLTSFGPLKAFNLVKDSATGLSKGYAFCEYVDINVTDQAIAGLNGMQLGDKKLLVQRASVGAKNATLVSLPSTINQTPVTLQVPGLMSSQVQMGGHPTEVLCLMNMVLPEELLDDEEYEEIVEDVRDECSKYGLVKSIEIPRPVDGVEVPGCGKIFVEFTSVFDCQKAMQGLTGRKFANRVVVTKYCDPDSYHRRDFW

B1: SF3B1 (protein, UniProt Q99NB9 1-1304)
chain: MAKIAKTHEDIEAQIREIQGKKAALDEAQGVGLDSTGYYDQEIYGGSDSRFAGYVTSIAATELEDDDDDYSSSTSLLGQKKPGYHAPVALLNDIPQSTEQYDPFAEHRPPKIADREDEYKKHRRTMIISPERLDPFADGGKTPDPKMNARTYMDVMREQHLTKEEREIRQQLAEKAKAGELKVVNGAAASQPPSKRKRRWDQTADQTPGATPKKLSSWDQAETPGHTPSLRWDETPGRAKGSETPGATPGSKIWDPTPSHTPAGAATPGRGDTPGHATPGHGGATSSARKNRWDETPKTERDTPGHGSGWAETPRTDRGGDSIGETPTPGASKRKSRWDETPASQMGGSTPVLTPGKTPIGTPAMNMATPTPGHIMSMTPEQLQAWRWEREIDERNRPLSDEELDAMFPEGYKVLPPPAGYVPIRTPARKLTATPTPLGGMTGFHMQTEDRTMKSVNDQPSGNLPFLKPDDIQYFDKLLVDVDESTLSPEEQKERKIMKLLLKIKNGTPPMRKAALRQITDKAREFGAGPLFNQILPLLMSPTLEDQERHLLVKVIDRILYKLDDLVRPYVHKILVVIEPLLIDEDYYARVEGREIISNLAKAAGLATMISTMRPDIDNMDEYVRNTTARAFAVVASALGIPSLLPFLKAVCKSKKSWQARHTGIKIVQQIAILMGCAILPHLRSLVEIIEHGLVDEQQKVRTISALAIAALAEAATPYGIESFDSVLKPLWKGIRQHRGKGLAAFLKAIGYLIPLMDAEYANYYTREVMLILIREFQSPDEEMKKIVLKVVKQCCGTDGVEANYIKTEILPPFFKHFWQHRMALDRRNYRQLVDTTVELANKVGAAEIISRIVDDLKDEAEQYRKMVMETIEKIMGNLGAADIDHKLEEQLIDGILYAFQEQTTEDSVMLNGFGTVVNALGKRVKPYLPQICGTVLWRLNNKSAKVRQQAADLISRTAVVMKTCQEEKLMGHLGVVLYEYLGEEYPEVLGSILGALKAIVNVIGMHKMTPPIKDLLPRLTPILKNRHEKVQENCIDLVGRIADRGAEYVSAREWMRICFELLELLKAHKKAIRRATVNTFGYIAKAIGPHDVLATLLNNLKVQERQNRVCTTVAIAIVAETCSPFTVLPALMNEYRVPELNVQNGVLKSLSFLFEYIGEMGKDYIYAVTPLLEDALMDRDLVHRQTASAVVQHMSLGVYGFGCEDSLNHLLNYVWPNVFETSPHVIQAVMGALEGLRVAIGPCRMLQYCLQGLFHPARKVRDVYWKIYNSIYIGSQDALIAHYPRIYNDDKNTYIRYDLDYIL
B2: DHX30 (protein, UniProt Q99PU8 1-1217)
chain: MVTPVCNSSTWQPKDSSFLSWPEMFSLDSFRKDRTQHRQRQCKLPPPRLPPMCVNPAPGGTITRASRDLLKEFPQPKNLLNSVIGRALGISHAKDKLVYVHTNGPKKKKVTLHIKWPKSVEVEGYGSKKIDAERQAAAAACQLFKGWGLLGPRNELFDAAKYRVLADRFGSPADSWWRPEPTMPPTSWRQLNPENIRPGGPAGLSRSLGREEEEDEEEELEEGTIDVTEFLSMTQQDSHNPLRDSRGGSFEMTDDDSAIRALTQFPLPKNLLAKVIQIATSSSTAKNLMQFHTVGTKTKLATLTLLWPCPMTFVAKGRRKAEAENKAAALACKKLKSLGLVDRNNEPLTHAMYNLASLRELGETQRRPCTIQVPEPILRKIEAFLSHYPVDSSWISPELRLQSDDILPLGKDSGPLSDPITGKPYMPLSEAEEVRLSQSLLELWRRRGPIWQEAPQLPVDPHRDTILSAIEQHPVVVISGDTGCGKTTRIPQLLLERYVTEGRGARCNVIITQPRRISAVSVAQRVSHELGPSLRRNVGFQVRLESKPPARGGALLFCTVGILLRKLQSNPSLEGVSHVIVDEVHERDVNTDFLLILLKGLQRLNPALRLVLMSATGDNERFSRYFGGCPVIKVPGFMYPVKEHYLEDILAKLGKHQYPHRHRHHESEDECALDLDLVTDLVLHIDARGEPGGILCFLPGWQEIKGVQQRLQEALGMHESKYLILPVHSNIPMMDQKAIFQQPPLGVRKIVLATNIAETSITVNDIVHVVDSGLHKEERYDLKTKVSCLETVWVSRANVIQRRGRAGRCQSGFAYHLFPRSRLEKMVPFQVPEILRTPLENLVLQAKIHMPEKTAVEFLSKAVDSPNIKAVDEAVILLQEIGVLDQREYLTTLGQRLAHISTDPRLAKAIVLAAIFRCLHPLLVVVSCLTRDPFSSSLQNRAEVDKVKALLSHDSGSDHLAFVRAVAGWEEVLRWQDRTSRENYLEENLLYAPSLRFIHGLIKQFSENIYEAFLVGKPSDCTLPSAQCNEYSEEEELVKGVLMAGLYPNLIQVRQGKVTRQGKFKPNSVTYRTKSGNILLHKSTINREATRLRSRWLTYFMAVKSNGSVFVRDSSQVHPLAVLLLTDGDVHIRDDGRRATISLSDSDLLRLEGDSRTVRLLREFRRALGRMVERSLRSELAALPLSVQQEHGQLLALLAELLRGPCGSFDMRKTADD
B3: ZCCHC3 (protein, UniProt Q8BPK2 1-400)
chain: MATGGGAEEESQRGRPQLPLPARPVARVEEPEGVREKMGWAQVVKNLAEKKGDFREPRRRDETGSGASGGLGSPGGLATPNPGDFPPAARGDPKGRRRDPTGEASDAYRKKSASGAGDPSRRKKAEVTAAMATPARPGTTEDATERPLQDEPPAAGPGKGRFLVRICFQGDESACPTRDFVVGALILRSIGMDPDDIYAVIQIPGSREFDVSFRSAEKLALFLRVYEEKRELEDCWENFVVLGRSRSSLKTLFILFRNETVDVEDIVTWLKRHCDVLAVPVKVTDRFGIWTGEYKCEIELRQGEGGVRHLPGAFFLGAERGYSWYKGQPKTCFKCGSRTHMSGTCTQDRCFRCGEEGHLSPYCRKVIVCNLCGKRGHAFAQCPKAVHNSVTAQLTSVAGH
B4: SF3B3 (protein, UniProt Q921M3 1-1217)
chain: MFLYNLTLQRATGISFAIHGNFSGTKQQEIVVSRGKILELLRPDPNTGKVHTLLTVEVFGVIRSLMAFRLTGGTKDYIVVGSDSGRIVILEYQPSKNMFEKIHQETFGKSGCRRIVPGQFLAVDPKGRAVMISAIEKQKLVYILNRDAAARLTISSPLEAHKANTLVYHVVGVDVGFENPMFACLEMDYEEADNDPTGEAAANTQQTLTFYELDLGLNHVVRKYSEPLEEHGNFLITVPGGSDGPSGVLICSENYITYKNFGDQPDIRCPIPRRRNDLDDPERGMIFVCSATHKTKSMFFFLAQTEQGDIFKITLETDEDMVTEIRLKYFDTVPVAAAMCVLKTGFLFVASEFGNHYLYQIAHLGDDDEEPEFSSAMPLEEGDTFFFQPRPLKNLVLVDELDSLSPILFCQIADLANEDTPQLYVACGRGPRSSLRVLRHGLEVSEMAVSELPGNPNAVWTVRRHIEDEFDAYIIVSFVNATLVLSIGETVEEVTDSGFLGTTPTLSCSLLGDDALVQVYPDGIRHIRADKRVNEWKTPGKKTIVKCAVNQRQVVIALTGGELVYFEMDPSGQLNEYTERKEMSADVVCMSLANVPPGEQRSRFLAVGLVDNTVRIISLDPSDCLQPLSMQALPAQPESLCIVEMGGTEKQDELGERGSIGFLYLNIGLQNGVLLRTVLDPVTGDLSDTRTRYLGSRPVKLFRVRMQGQEAVLAMSSRSWLSYSYQSRFHLTPLSYETLEFASGFASEQCPEGIVAISTNTLRILALEKLGAVFNQVAFPLQYTPRKFVIHPESNNLIIIETDHNAYTEATKAQRKQQMAEEMVEAAGEDERELAAEMAAAFLNENLPESIFGAPKAGNGQWASVIRVMNPIQGNTLDLVQLEQNEAAFSVAVCRFSNTGEDWYVLVGVAKDLILSPRSVAGGFVYTYKLVNNGEKLEFLHKTPVEEVPAAIAPFQGRVLIGVGKLLRVYDLGKKKLLRKCENKHIANYISGIQTIGHRVIVSDVQESFIWVRYKRNENQLIIFADDTYPRWVTTASLLDYDTVAGADKFGNICVVRLPPNTNDEVDEDPTGNKALWDRGLLNGASQKAEVIMNYHVGETVLSLQKTTLIPGGSESLVYTTLSGGIGILVPFTSHEDHDFFQHVEMHLRSEHPPLCGRDHLSFRSYYFPVKNVIDGDLCEQFNSMEPNKQKNVSEELDRTPPEVSKKLEDIRTRYAF

No constants are given. Whether binding was seen depends on the method and setting. In cells and extracts the contact can be indirect. A yes stands for co-enrichment or nearness to the bait. Other partners may have been found.

For this assay, the target named is T1, Moloney leukaemia virus 10 homologue (MOV10) (mouse (endogenous in mESCs)) (UniProt P23249).
T1 sequence: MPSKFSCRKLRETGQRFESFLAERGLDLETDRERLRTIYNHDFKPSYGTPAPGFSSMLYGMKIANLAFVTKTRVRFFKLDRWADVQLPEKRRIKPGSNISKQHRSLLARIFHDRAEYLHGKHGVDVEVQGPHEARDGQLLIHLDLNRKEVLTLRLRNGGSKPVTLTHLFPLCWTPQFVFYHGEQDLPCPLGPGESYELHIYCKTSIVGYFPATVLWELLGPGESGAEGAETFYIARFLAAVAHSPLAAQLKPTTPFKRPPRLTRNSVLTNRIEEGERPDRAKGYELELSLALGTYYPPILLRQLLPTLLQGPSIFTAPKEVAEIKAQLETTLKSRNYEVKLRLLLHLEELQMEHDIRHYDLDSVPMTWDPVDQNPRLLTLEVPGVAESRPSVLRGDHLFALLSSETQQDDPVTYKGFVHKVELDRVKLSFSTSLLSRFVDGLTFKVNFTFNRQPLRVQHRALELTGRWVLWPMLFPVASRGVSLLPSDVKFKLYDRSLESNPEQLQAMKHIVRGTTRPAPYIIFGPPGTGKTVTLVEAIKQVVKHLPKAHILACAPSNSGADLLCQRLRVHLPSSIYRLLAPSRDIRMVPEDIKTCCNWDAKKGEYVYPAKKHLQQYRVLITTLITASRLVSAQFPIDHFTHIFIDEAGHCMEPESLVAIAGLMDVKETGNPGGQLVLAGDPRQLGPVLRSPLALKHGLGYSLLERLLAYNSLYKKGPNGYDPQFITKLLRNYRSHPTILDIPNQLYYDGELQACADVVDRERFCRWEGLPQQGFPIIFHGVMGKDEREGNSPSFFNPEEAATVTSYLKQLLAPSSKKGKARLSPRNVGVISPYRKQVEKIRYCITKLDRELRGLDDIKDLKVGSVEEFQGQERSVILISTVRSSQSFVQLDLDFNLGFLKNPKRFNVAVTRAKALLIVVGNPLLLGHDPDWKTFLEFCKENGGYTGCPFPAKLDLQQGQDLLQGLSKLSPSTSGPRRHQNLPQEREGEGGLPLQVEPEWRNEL
In words: affinity purification with mass spectrometry.
AGO2 (from UniProt Q8CJG0 1-860): the binding result is “binds”.

Turning to APOBEC3F (mouse (endogenous in mESCs)), the binding entry is given as “binds”. Regarding DHX9 (from UniProt O70133 1-1380), the binding result is reported as “binds”.

As to DHX15 (from UniProt O35286 1-795), the binding result is recorded as “binds”. DHX21 (mouse (endogenous in mESCs)): the binding result was “binds”. As for EIF4A3 (from UniProt Q91VC3 1-411), the binding entry was “binds”. With ELAVL1 (from UniProt P70372 1-326) the entry was “binds”. The result for ELAVL2 (from UniProt Q60899 1-360) reads “binds”; that for FXR1 (from UniProt Q61584 1-677), “binds”. On to IGF2BP1 (from UniProt O88477 1-577), for which the binding entry is “binds”.

Turning to IGF2BP2 (from UniProt Q5SF07 1-592), the binding entry is listed as “binds”.

On to IGF2BP3 (from UniProt Q9CPN8 1-579), for which the binding result was “binds”. Take PABPC1 (from UniProt P29341 1-636): the binding entry was “binds”. On to TUT4 (from UniProt B2RX14 1-1644), for which the binding result was “binds”. With U2AF2 (from UniProt P26369 1-475) the entry was “binds”.

UPF1 (from UniProt Q9EPU0 1-1124): the binding result is recorded as “binds”.

Turning to B1, the binding result is “binds”. The result for B2 reads “binds”. B3: the binding entry is “binds”. With B4 the entry was “binds”.
